In this experiment the target is MoArf1-GFP (Magnaporthe oryzae) (UniProt G4MSB4). Kind of experiment: co-IP.

Protein sequences, listed by entry. Tags and fused reporters are not part of them. Lines headed by an entry give the natural chain unless they say otherwise; changes in a name come on top.
UniProt G4MSB4: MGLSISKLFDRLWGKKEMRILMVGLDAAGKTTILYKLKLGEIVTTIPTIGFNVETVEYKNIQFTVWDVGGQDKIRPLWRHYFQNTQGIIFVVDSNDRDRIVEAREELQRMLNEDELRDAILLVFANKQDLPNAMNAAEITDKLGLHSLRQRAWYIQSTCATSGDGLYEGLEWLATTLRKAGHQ
UniProt G4N3J3: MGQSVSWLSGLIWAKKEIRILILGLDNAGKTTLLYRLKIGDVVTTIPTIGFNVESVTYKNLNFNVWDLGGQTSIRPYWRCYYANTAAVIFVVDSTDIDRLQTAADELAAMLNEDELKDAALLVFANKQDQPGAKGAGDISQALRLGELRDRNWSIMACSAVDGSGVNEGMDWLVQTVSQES

These are yes or no findings as the source states them, for the method shown. In cells and extracts the contact can be indirect. A result given as binding can be weak or reduced; the word gives no strength.

Take MoArl1-S (from UniProt G4N3J3): the binding entry was “binds”.
